## Screening data, single-dose tests

Measurements from “University of Dundee, Small-Polar-MMV Screening Library” (2021), ChEMBL document CHEMBL3988442.

Results are given as percent effect.
The controls that fix the scale are not given in the record; negative values are as filed.
The compounds are a random part of those screened.
Two or more numbers in one place are separate tests of the same structure; such repeats can differ widely.

A: 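Phenotypic screen: M. tuberculosis growth, cholesterol and DPPC medium, 4 days; the read-out is not stated. Tested at 50 µM. The record gives no direction; compounds that gave an IC50 in retests scored well above the rest, so higher reads as more growth inhibition. Size under these conditions: about 69,000 compounds, about 370 of them at 50% or above in at least one test.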
B: 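Growth of Mycobacterium tuberculosis over 3 days (7H9 medium with glucose and tyloxapol); the read-out is not stated. Compounds at 50 µM. The record gives no direction; compounds that gave an IC50 in retests scored well above the rest, so higher reads as more growth inhibition. Size under these conditions: about 69,000 compounds, about 760 of them at 50% or above in at least one test.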

| compound | A | B |
|---|---|---|
| `CCN1CCOC(CNCc2cccc(OCc3ccccn3)c2)C1` (centres unmarked) | 10.64 | 13.82 and 2.627 |
| `CCOCC1CN(S(C)(=O)=O)Cc2ncn(CC3CC3)c21` (centres unmarked) | -2.206 | 7.02 |
| `Cc1ccc(-c2cc(C(=O)NCCN3CCCS3(=O)=O)[nH]n2)cc1` | -44.53 | -10.85 |
| `COc1ccc(CN2CCc3nc4ccsc4c(=O)n3CC2)c(C)c1C` | -16.65 | -3.322 |
| `CC(=O)N1CCCC1c1nc(C)no1` (centres unmarked) | -31.41 | -63.23 |
| `CC(NC(=O)CNCCn1cccn1)c1ccc2c(c1)OCCO2` (centres unmarked) | 20.76 | 16.73 |
| `COc1ccc(F)cc1Cn1nc(C(N)=O)ccc1=O` | -34.96 | -20.34 |
| `O=C(NCc1cccnc1N1CCc2ccccc2C1)c1cnc[nH]1` | -15.54 and -4.393 | 12.54 |
| `CCOCc1ccccc1NC(=O)NCC(C)(O)c1cc(C)oc1C` (centres unmarked) | 1.998 | 26.89 |
| `CC(=O)NCC1CCN(C(=O)CCOc2ccc(C(C)C)cc2)CC1` | 16.4 | 19.31 |
| `CC(O)CCN(C)c1nc2ccccc2c(=O)[nH]1` (centres unmarked) | -2.067 | 12.53 and 5.049 |
| `CSCCC(=O)N1CCC(c2nccn2Cc2cscn2)CC1` | -3.565 and -10.04 | -2.111 |
| `Cn1cc(CN2CCC3(CC2)COC(COc2ccccn2)C3)cn1` (centres unmarked) | -14.17 | -16.72 |
| `CC(C)CN1Cc2nc(N3CCC(O)CC3)ncc2C1=O` | -2.15 | 2.032 |
| `CCc1nccc(CN2CCC(CNC(=O)Nc3ccccc3)C2)n1` (centres unmarked) | -25.02 and -3.863 | -34.56 |
| `Cn1cccc1C(=O)NCc1cn2c(n1)CN(CC1CCOC1)CC2` (centres unmarked) | -30.63 and -22.03 | -60.4 |
| `CC[C@@H](c1ccccc1)n1c(C2CC2)n[nH]c1=O` | -15.06 | -0.6427 |
| `[H][C@]12CCN(C(=O)C3CCCO3)CC[C@@]1([H])S(=O)(=O)N(CC)C2` (some centres unmarked) | 28.9 | 5.837 and 1.565 |
| `COCc1nc(C(=O)N2CCCC2c2c(C)nn(C)c2C)cs1` (centres unmarked) | -10.7 | -0.9613 |
| `O=C1CC(NS(=O)(=O)N2CCOCC2)CN1Cc1ccccc1` (centres unmarked) | -4.768 | 4.05 |
| `Fc1ccccc1CN1CCC[C@H](Cn2nnc(-c3cccs3)n2)C1` | -28.16 and 57.08 | 2.878 |
| `CCOc1ccccc1C(=O)N1CCCC1c1ncc2c(n1)CCNC2.Cl` (centres unmarked) | -15.81 | -15.33 |
| `N#CCCN1CCN(S(=O)(=O)c2ccc(Cl)s2)CC1` | 2.268 and 7.88 | -20.21 |
| `O=C(Nc1ccccc1C(=O)NCCCN1CCOCC1)c1ccco1` | 16.65 | -12.61 and 0.9241 |
| `O=C(Nc1ccccc1OCCc1ccccn1)N1CC[C@@H](O)C1` | -0.3902 | -5.312 |
| `CS(=O)(=O)Cc1ccc(NC(=O)Cc2cccnc2)cc1F` | -18.68 | -36.72 |
| `CC(C)(C)CC(=O)N1CCC(n2cc(C3(O)CCCC3)nn2)CC1` | 11.83 | 23.29 |
| `CN1CCCN(C[C@@H]2CN(C(=O)CCC3CCCC3)C[C@@H]2CO)CC1` | -3.944 | 14.17 |
| `[H][C@@]12CCN(C(=O)NCC)C[C@]1([H])CCN(CCN1CCNC1=O)C(=O)C2` | 14.73 | 0.5067 and -3.838 |
| `Cc1ccc(N2CCc3ncnc(C)c3CC2)nn1` | -33.92 | -44.18 |
| `[H][C@]12CCCCN1CCC[C@@]2(O)CN1CCN(c2ccncc2C)CC1` | 9.004 | 23.68 |
| `CN1CCN(C(=O)CCCc2ccccc2)CC(O)(Cn2cccn2)C1` (centres unmarked) | 8.03 and -0.2378 | -6.974 |
| `[H][C@@]12COC[C@]1([H])[C@@H](OCc1cccnc1)CN2C(=O)c1cscn1` | 4.3 | -21.27 |
| `COCCNC(=O)c1nn(-c2cccc(C(C)C)c2)cc1O` | -25.31 | -11.78 |
| `O=C(CN1CCCc2c(F)cc(Br)cc21)N1CCCC1` | -17.66 | 5.361 |
| `C=C(C)CN1CCN(Cc2cnc(-c3ccccc3C)nc2)CC1.O=C(O)CC(O)(CC(=O)O)C(=O)O` | 0.7511 | -21.74 |
| `NCC1CCN(C2CCN(c3ccc(-c4ccco4)cc3)CC2)C1` (centres unmarked) | 26.72 | 38.7 and 53.61 |
| `Cc1nc(N2CCCC2C(=O)NCc2ccsc2)nc2ccccc12` (centres unmarked) | -5.993 | 0.6328 |
| `Fc1ccc(CC2CCN(Cc3cscn3)CC2)cc1` | 21.62 | 26.36 |
| `Cc1ccc(CN2CCCC(c3nn(C)c4nccnc34)C2)s1` (centres unmarked) | -1.109 | 7.618 |
| `COCC(=O)N1CCC(C(=O)c2cc(C)cnc2N)CC1` | -8.118 | 21.67 |
| `CC(C)CN1CCc2[nH]cnc2C12CCN(C(=O)c1ccccn1)CC2` | -13.53 | -16.72 |
| `Cc1ccc(C(=O)N2CCOC3(CCCC3)C2)c(=O)[nH]1` | 1.56 | 12.02 |
| `CC1CCCCN1c1nc2c(c(=O)[nH]1)CCN(Cc1ccccc1F)C2` (centres unmarked) | 1.918 | 14.52 |
| `Cc1ccc(N2CC[C@H](OCC3CC3)[C@@H]2Cc2ccncc2)nn1` | 0.2762 | 20.99 |
| `Cc1ccoc1C(=O)NC1CCN(Cc2csc3c(F)cccc23)CC1` | 11.49 | 20.38 |
| `COc1ccc(C2SCC(=O)Nc3n[nH]cc32)c(OC)c1OC` (centres unmarked) | -18.74 | -15.47 |
| `Cc1cc2cccc(C(=O)N3CC[C@@H](N)[C@H](O)C3)c2o1` | 24.71 | 26.36 and -0.9845 |
| `O=S(=O)(NCCCn1cccn1)c1ccc2c(c1)CCC2` | -1.89 | 14.05 |
| `O=C(c1cnc(Nc2ccccc2)nc1)N1CCC2(CCNCC2)CC1` | 7.393 and 3.714 | 28.82 |
| `CC(C)Oc1cccc(C(O)CNC(=O)NCc2cccs2)c1` (centres unmarked) | 43.56 and 25.44 | 45.12 |
| `CS(=O)(=O)NCCc1cccc2cccnc12` | -34.33 | -12.84 |
| `CCN(Cc1cnn(C)c1)C[C@H]1CC[C@@H](Cc2ccc(C#N)cc2)O1` | 15.51 | 1.203 |
| `O=C(O)C(F)(F)F.O=C(O)C(F)(F)F.O=C(O)C(F)(F)F.[H][C@@]12CN(Cc3cccnc3)C[C@]1([H])[C@@H](OC)CCN2Cc1cnn(C)c1` | -22.06 | -23.11 |
| `O=C(CCN1CCCO1)N1CC[C@@H](c2ccc3ccccc3c2)[C@H](O)C1` | -20.62 | 12.62 and 0.3193 |
| `CCn1cnnc1C1CCN(C(=O)c2ccccc2OC)CC1` | -15.62 | -18.85 |

Some entries from above, unchanged:

* COCc1nc(C(=O)N2CCCC2c2c(C)nn(C)c2C)cs1 (centres unmarked) | A: -10.7%; B: -0.9613%
* Cc1ccc(CN2CCCC(c3nn(C)c4nccnc34)C2)s1 (centres unmarked) | A: -1.109%; B: 7.618%
* O=C(Nc1ccccc1OCCc1ccccn1)N1CC[C@@H](O)C1 | A: -0.3902%; B: -5.312%
* Cc1ccc(C(=O)N2CCOC3(CCCC3)C2)c(=O)[nH]1 | A: 1.56%; B: 12.02%
* CC(C)(C)CC(=O)N1CCC(n2cc(C3(O)CCCC3)nn2)CC1 | A: 11.83%; B: 23.29%
* CC(=O)N1CCCC1c1nc(C)no1 (centres unmarked) | A: -31.41%; B: -63.23%